Source: PubChem BioAssay AID2551 (National Center for Advancing Translational Sciences (NCATS), 2010)
The whole screen tested about 310,000 compounds, of which about 17,000 (5.5%) were called active. The inconclusive results got no clear call from the source; some entries with a clear call stand among them for comparison. Calls come from the whole dose curve; as a rule, active = well fitted inhibition curve with a large enough effect; inconclusive = small, poorly fitted or top-dose-only effect, or effect the other way; inactive = no such curve, though single readings can be large or run the other way. A potency beside an inconclusive call is a rough fit, not a confirmed value.
% is set by controls: 0 for no effect and ±100 for the full control effect; potency is the fitted concentration of half-maximal effect.
Note: nearly all actives have a fitted effect of over 60% in size.

The chains behind the UniProt entries cited, without tags or fusion partners. Where a name states a change or a piece, a line headed by the entry shows the natural chain unless it says otherwise.
UniProt P51450: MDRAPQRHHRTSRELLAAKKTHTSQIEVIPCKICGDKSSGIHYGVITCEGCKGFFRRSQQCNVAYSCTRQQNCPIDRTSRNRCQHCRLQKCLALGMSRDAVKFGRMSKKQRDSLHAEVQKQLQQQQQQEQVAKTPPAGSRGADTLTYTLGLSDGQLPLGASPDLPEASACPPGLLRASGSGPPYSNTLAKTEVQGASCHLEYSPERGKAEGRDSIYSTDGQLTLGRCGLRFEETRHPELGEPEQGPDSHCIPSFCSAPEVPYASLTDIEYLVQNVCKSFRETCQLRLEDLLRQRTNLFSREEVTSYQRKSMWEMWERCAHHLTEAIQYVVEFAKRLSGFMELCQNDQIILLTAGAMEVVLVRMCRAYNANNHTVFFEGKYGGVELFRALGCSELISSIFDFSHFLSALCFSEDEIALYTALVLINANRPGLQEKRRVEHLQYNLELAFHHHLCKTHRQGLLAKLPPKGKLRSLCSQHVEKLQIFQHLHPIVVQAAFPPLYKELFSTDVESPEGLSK

The compounds below were run against Nuclear receptor ROR-gamma (Mus musculus) (UniProt P51450) (assay: qHTS for inhibitors of ROR gamma transcriptional activity). Conditions: Drosophila S2 Gal4-RORgamma UAS-luciferase reporter, 20 h; activity change, negative = inhibition: at 53.6 µM (top of the series).
Method in brief: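 Compounds are pin-transferred onto Drosophila Schneider cells expressing a copper-inducible Gal4–ROR gamma transactivation domain fusion. After 1 hr, copper sulfate is added to 700 uM final; luciferase is read 20 hr later.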
In the case of `CN[C@H]1C[C@H]2O[C@@](C)([C@H]1OC)n1c3ccccc3c3c4c(c5c6ccccc6n2c5c31)C(=O)NC4`, the Potency is reported as inconclusive: 0.0089 µM [inhibitor, full curve, poor fit].
`O=C(Oc1ccccc1)N1CCC2(CCN(Cc3ccccc3)CC2)CC1` was tested, and the Potency was “inactive”.
For `CC(C)=CCCC1(C)C=Cc2c(O)c3c(c(CC=C(C)C)c2O1)OC12C(=CC4CC1C(C)(C)OC2(C/C=C(/C)C(=O)O)C4=O)C3=O` (stereo not given), the Potency was active: 3.16 µM.
For `C[n+]1c(-c2ccccc2)c2cc(N)ccc2c2ccc(N)cc21`, the Potency was inconclusive: 22.4 µM [inhibitor, single point].
With `COc1cc(OC)cc(C(=O)N2CCC(N3CCN(c4ccccc4)CC3)CC2)c1` the Potency was inconclusive: 10 µM [inhibitor, partial curve, poor fit].
With `CN(C)S(=O)(=O)c1cc(NC(=O)COC(=O)Cc2ccccc2)ccc1Cl` the Potency was inconclusive: 17.8 µM [activator, single point].
`c1ccc2c(c1)Nc1ccccc1S2` was tested, and the Potency was inconclusive: 12.6 µM [activator, partial curve].
With `COc1cc2c(cc1OC)C(C(=O)N1CCC3(CC1)OCCO3)C(c1ccccc1F)N(C)C2=O` (stereo not given) the Potency was inconclusive: 0.126 µM [activator, single point].
`CC(C)(C)C(O)C(Oc1ccc(Cl)cc1)n1cncn1` (stereo not given) was tested, and the activity change, negative = inhibition was inactive: -13.1% [at 0.365 µM].
In the case of `CCCCn1c(=O)c(C(=O)Nc2ccc(C)cn2)c(O)c2ccccc21`, the activity change, negative = inhibition is reported as inactive: 19.1% [at 1.91 µM].
With `Cc1ccc(N2C(=O)NC(=O)/C(=C\c3ccc([N+](=O)[O-])o3)C2=O)cc1` the Potency was “inactive”.
In the case of `CCOP(=O)(OCC)c1cccc(P(=O)(c2ccccc2)c2ccccc2)c1O`, the Potency is reported as inconclusive: 3.55 µM [activator, partial curve].
With `CC(=O)c1c(C)n(C2CCCCC2)c2ccc(O)cc12` the Potency was inconclusive: 7.94 µM [inhibitor, partial curve, poor fit].
`CC(=O)Nc1ccc(OC(=O)N(C)c2ccccc2)cc1` was tested, and the Potency was “inactive”.
For `CSc1ccc(CN2CCN(c3ccccc3C)CC2)cc1`, the activity change, negative = inhibition was inactive: 25.7% [at 1.91 µM].
For `CCCn1c(C(=O)c2ccccc2OC)nc2ccccc21`, the Potency was inconclusive: 22.4 µM [inhibitor, single point].
For `CCOC(=O)c1sc(=NC(=O)c2ccc(C)c(C)c2)n(C)c1C`, the Potency was inconclusive: 0.891 µM [inhibitor, full curve].
For `O=C(N/N=C/c1c(O)n(C2CC2)c(=S)[nH]c1=O)c1ccccc1Cl`, the Potency was inconclusive: 8.91 µM [inhibitor, partial curve, poor fit].
For `O=C1NC(=O)N(c2ccc3c(c2)OCO3)C(=O)/C1=C\c1ccsc1`, the Potency was “inactive”.
In the case of `O=C(Cc1ccc(Cl)c(Cl)c1)Nc1cccnc1`, the Potency is reported as inconclusive: 35.5 µM [activator, single point].
In the case of `C=C(C)CSc1nnc([C@@H](N)Cc2ccccc2)o1`, the Potency is reported as inconclusive: 15.8 µM [inhibitor, single point].
`CCNc1nc(Cl)nc(NC(C)C)n1` was tested, and the Potency was inconclusive: 15.8 µM [activator, single point].
`CCCCn1c(=O)c(C(=O)Nc2ccccc2N)c(O)c2ccccc21` was tested, and the Potency was active: 5.62 µM.
In the case of `O=C(Nc1ccc(F)cc1)OC1CN2CCC1CC2` (stereo not given), the Potency is reported as “inactive”.
In the case of `COc1cc(NS(=O)(=O)c2ccc3c(c2)oc(=O)n3C)cc(OC)c1OC`, the Potency is reported as inconclusive: 5.62 µM [activator, single point].
In the case of `BrCC(Br)(Br)Br`, the Potency is reported as “inactive”.
`COC(=O)N1C(c2ccccc2)C1c1ccccc1` (stereo not given) was tested, and the Potency was “inactive”.
In the case of `CC(=O)O[C@H]1CC[C@@]2(C)C(=CC[C@@H]3[C@H]2CC[C@]2(C)C(=O)CC[C@H]32)C1`, the Potency is reported as “inactive”.
`OC12Oc3ccccc3C=C1N1CCC2CC1` (stereo not given) was tested, and the Potency was inconclusive: 0.141 µM [inhibitor, partial curve, poor fit].
For `ClCCBr`, the Potency was “inactive”.
`O=C(COc1ccc(S(=O)(=O)N2CCOCC2)cc1)N1CCN(Cc2ccc3c(c2)OCO3)CC1` was tested, and the Potency was “inactive”.
`CO[C@H]1[C@@H](O)[C@@H](C)O[C@H](O[C@H]2[C@H](Oc3cccc4c(O)c5c(=O)oc6ccc(C)c7c(=O)oc(c34)c5c67)O[C@H](C)[C@H](O)[C@@H]2O)[C@@H]1O` was tested, and the Potency was active: 11.2 µM.
With `Cc1ccccc1Cn1cnc2c(oc3ccccc32)c1=O` the Potency was active: 3.98 µM.
For `O=C(c1cnn2c(C(F)(F)F)cc(-c3ccccc3)nc12)N1CCC2(CC1)OCCO2`, the Potency was inconclusive: 5.62 µM [inhibitor, single point].
In the case of `O=C1Nc2cc(Cl)c(Cl)cc2N2CCNC[C@H]12`, the Potency is reported as inconclusive: 0.794 µM [inhibitor, full curve, poor fit].
For `CC(C)CN1CC[C@@]2(CCCN(C(=O)c3ccncc3)C2)C1`, the Potency was “inactive”.
`Cc1ccc(CN2CCN(C)CC2)c(C)c1` was tested, and the Potency was inconclusive: 0.398 µM [inhibitor, full curve, poor fit].
In the case of `CCCC1=C(C(=O)OCC)C2(C(=O)Nc3ccccc32)C(C#N)=C(N)O1` (stereo not given), the Potency is reported as “inactive”.
`Nc1ccccc1N=Cc1c(O)n(CCC2=CCCCC2)c(=O)[nH]c1=O` was tested, and the Potency was “inactive”.
For `C=CC=O`, the Potency was “inactive”.
With `O=[N+]([O-])c1ccc(NC2CCCC2)c2ccncc12` the Potency was inconclusive: 12.6 µM [activator, single point].
With `Nc1cc(Cl)c2nonc2c1[N+](=O)[O-]` the Potency was active: 2 µM.
In the case of `COc1ccc(CCC(=O)N2C[C@H]3C[C@@H](C2)c2cccc(=O)n2C3)cc1`, the Potency is reported as inconclusive: 20 µM [inhibitor, single point].
For `CCCCCCCCOC(=O)c1ccccc1C(=O)OCCCCCCCC`, the Potency was “inactive”.
With `COc1ccc2cc1Oc1ccc(cc1)C[C@H]1c3cc(c(OC)cc3CCN1C)Oc1c(O)c(OC)cc3c1[C@H](C2)N(C)CC3` the Potency was inconclusive: 12.6 µM [inhibitor, partial curve, poor fit].
For `CN1CCc2nc3sc(C#N)c(N)c3c(-c3cccs3)c2C1`, the Potency was “inactive”.
For `C[S@@](=O)CCCCN=C=S`, the Potency was active: 3.16 µM.
With `CNP1(NC)=NC(C(F)(F)F)=NC(C(F)(F)F)=N1` the Potency was inconclusive: 5.62 µM [activator, single point].
With `COc1ccc(O)c2c(=O)c3c(OC)cc4c(c3oc12)C1C=COC1O4` (stereo not given) the Potency was active: 0.708 µM.
With `O=C1Nc2ccccc2C2(CCN(CCc3ccc(C(F)(F)F)cc3)CC2)O1` the Potency was “inactive”.
`CSc1ccccc1C(=O)C1CCCN(Cc2ccccn2)C1` (stereo not given) was tested, and the Potency was active: 11.2 µM.
With `CCOP(=O)(OCC)OCC` the Potency was “inactive”.
For `NC(=O)Nc1ccc(C(=O)OCC(=O)Nc2ccc(Cl)cc2C(=O)c2ccccc2)cc1`, the Potency was inconclusive: 15.8 µM [activator, single point].
With `CCCCn1c(N)c(C(=O)OCCOC)c2nc3ccccc3nc21` the Potency was “inactive”.
`Cc1cccc(NP(=O)(Oc2ccccc2F)Oc2ccccc2F)c1` was tested, and the Potency was inconclusive: 15.8 µM [activator, partial curve].
For `Cc1nc2sc3c(c2c(=O)n1NC(=O)CCl)CCCC3`, the Potency was inconclusive: 14.1 µM [activator, single point].
`Cc1ccc(N2C(=O)/C(=C/c3ccc(CN(CCC#N)S(C)(=O)=O)o3)C(=O)NC2=S)cc1` was tested, and the Potency was “inactive”.
For `C=C(C)Cn1c(-c2cccc([N+](=O)[O-])c2)n[nH]c1=S`, the Potency was active: 7.08 µM.
`c1cc2n(c1)-c1c(ccc3c1OCO3)CNC2c1ccc2c(c1)OCO2` (stereo not given) was tested, and the Potency was inconclusive: 0.112 µM [inhibitor, full curve, poor fit].
With `CCOc1ccccc1N1C(=O)NC(=O)/C(=C/c2ccc3c4c(cccc24)CC3)C1=O` the Potency was “inactive”.
In the case of `CCCCn1c(O)c(/C(CC)=N/N2CCCCC2c2cccnc2)c(=O)[nH]c1=S` (stereo not given), the Potency is reported as inconclusive: 17.8 µM [inhibitor, single point].
With `CCC(=NC1CC1)c1c(O)n(C2CCCCC2)c(=O)[nH]c1=O` the Potency was “inactive”.
For `Cc1cc(O)ccc1Cl`, the Potency was inconclusive: 31.6 µM [activator, single point].
In the case of `CCOC(=O)c1ncn2c1CN(C)C(=O)c1cc(F)ccc1-2`, the Potency is reported as inconclusive: 0.1 µM [activator, full curve, poor fit].
For `O=[N+]([O-])c1ccc(Sc2nc3ccccc3o2)c([N+](=O)[O-])c1`, the Potency was inconclusive: 11.2 µM [inhibitor, partial curve, poor fit].
With `CCCC(C)C1(CC)C(=O)N=C(S)NC1=O` (stereo not given) the Potency was inconclusive: 10 µM [inhibitor, partial curve].
For `Nc1c(C(=O)OC2CCCCC2)c2nc3ccccc3nc2n1CC1CCCO1` (stereo not given), the Potency was active: 11.2 µM.
With `OC[C@@H]1[C@@H](O)[C@H](O)[C@H]2[C@@H](O)CCN21` the Potency was “inactive”.
In the case of `COC(=O)[C@@]1(Cc2ccc(F)cc2)[C@H]2c3cc(C(=O)N(C)C)[nH]c3C[C@H]2CN1C(=O)c1ccccc1`, the Potency is reported as inconclusive: 2.51 µM [activator, partial curve].
`Cc1ccc(-n2nc(C)cc2NC(=O)COc2cc(C)cc3oc(=O)c4c(c23)CCC4)cc1` was tested, and the Potency was inconclusive: 35.5 µM [inhibitor, single point].
In the case of `Cc1nonc1OCCNc1ccc([N+](=O)[O-])c2cccnc12`, the Potency is reported as inconclusive: 12.6 µM [activator, single point].
`COc1cccc(-n2cnc3scc(-c4cccs4)c3c2=O)c1` was tested, and the Potency was inconclusive: 5.62 µM [inhibitor, single point].
With `C1CCC2CCCCC2C1` (stereo not given) the Potency was inconclusive: 10 µM [inhibitor, partial curve, poor fit].
`C[C@]12C=CC(=O)C=C1CC[C@@H]1[C@@H]2CC[C@@]2(C)[C@H]1CC[C@]2(C)O` was tested, and the Potency was “inactive”.
For `COc1ccc(C2=NCC(=S)Nc3ccc(Cl)cc32)cc1Cl`, the Potency was active: 2.82 µM.
